Data published in the RNAGym collection of RNA variant scans (doi:10.1126/science.aae0568).
Variants at the floor of the assay are shown more often than the library holds them.

B1: tRNA (parent)
chain: GUUCCGUUGGCGUAAUGGUAACGCGUCUCCCUCCUAAGGAGAAGACUGCGGGUUCGAGUCCCGUACGGAACG

Variants of: B1
Assay: yeast fitness relative to wild type (ratio to wild type); higher = fitter; tRNA-Arg(CCU), competitive growth, 37 C, YPD
In short: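 Gene amplicons from the start population and from each of six end populations were read by 100-nucleotide paired-end sequencing. Those end populations came from pooled Saccharomyces cerevisiae strains carrying tRNA-Arg(CCU) gene variants at the native locus, competed in YPD at 37°C for 24 hours. Fitness relative to wild type was worked out from changes in genotype frequencies. Genotypes needed ≥ 100 starting reads, and estimates < 0.5 were set to 0.5.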
With A43U G51A G52C C60A the yeast fitness was at most 0.5.
For G9A A21C C24G C34U, the yeast fitness was at most 0.5.
Work on C22U A36C A37G A65G yielded a yeast fitness of at most 0.5.
In the case of A15U C22U A70U, the yeast fitness is reported as at most 0.5.
In the case of C11U G18A C62A A70C, the yeast fitness is reported as at most 0.5.
Work on U2C C4U A40C A42U C46G yielded a yeast fitness of at most 0.5.
Work on A69G yielded a yeast fitness of 0.982.
G17A C24A G41A A45C G58C gave a yeast fitness of at most 0.5.
C4G U7G G12C A20U U35C G44A G48C C55G A69U gave a yeast fitness of at most 0.5.
For G12A C30G A37U G52C, the yeast fitness was at most 0.5.
U8C G38C A70C gave a yeast fitness of at most 0.5.
U3C G25C G38A A42C G52A C62U gave a yeast fitness of at most 0.5.
Variant U8G C34G G50C G56C has a yeast fitness of at most 0.5.
U2G C49G G50C A70G gave a yeast fitness of at most 0.5.
Work on U8C U28G C46G C49U A69C yielded a yeast fitness of at most 0.5.
U53A A70C showed a yeast fitness of 0.769.
For U2C G18C G23A G25C A37G A43C C55G G68A, the yeast fitness was at most 0.5.
In the case of A14U A37C U47C, the yeast fitness is reported as at most 0.5.
In the case of G10A C27G A37U U54C C62A G68C, the yeast fitness is reported as at most 0.5.
Variant G18A C31U has a yeast fitness of 0.663.
With C11A C22U C30G A65G the yeast fitness was at most 0.5.
In the case of A15C U28C G48C G67A, the yeast fitness is reported as at most 0.5.
Work on G17C U54C C61U C62U C66A yielded a yeast fitness of at most 0.5.
With U35A G39A U53A the yeast fitness was at most 0.5.
Variant A43U C61A has a yeast fitness of 0.764.
C5A G52A G58C showed a yeast fitness of at most 0.5.
U16A A36G C55G showed a yeast fitness of at most 0.5.
With C4A C34G C46G G56A the yeast fitness was at most 0.5.
In the case of U2A U47A A65C, the yeast fitness is reported as at most 0.5.
U13C A70C gave a yeast fitness of 1.09.
U3C C29U C49U C66A gave a yeast fitness of at most 0.5.
With U7G C27G U32C A36G U53A G56A C62A the yeast fitness was at most 0.5.
For C60U A65C C66G, the yeast fitness was at most 0.5.
U2A C4A C31U G38A gave a yeast fitness of at most 0.5.
C46A G58C C62A A70C showed a yeast fitness of at most 0.5.
U2C A15C C29U G50A U53C showed a yeast fitness of at most 0.5.
In the case of C4G U7A A57U, the yeast fitness is reported as at most 0.5.
In the case of G17C A20C C49U G52A C61A C62G, the yeast fitness is reported as at most 0.5.
Work on G18A U19A C61U yielded a yeast fitness of 0.61.
Work on U26C A43G yielded a yeast fitness of 1.01.
For A15G A21G C27U U47C G56C A57G C66G, the yeast fitness was at most 0.5.
In the case of C27G A40G G52A, the yeast fitness is reported as at most 0.5.
With U28C G41C A42G C49A the yeast fitness was at most 0.5.
Variant U3A G18A C31G A40G G52C has a yeast fitness of at most 0.5.
A20C U26G C55A gave a yeast fitness of at most 0.5.
With C11A A21G C34U A37G A42C the yeast fitness was at most 0.5.
With U2A C31G C61G the yeast fitness was at most 0.5.
For C27G C31A C34A G38C C49G, the yeast fitness was at most 0.5.
C4A U8A A21U U26A A37C C49U gave a yeast fitness of at most 0.5.
In the case of C31G G56A, the yeast fitness is reported as 0.98.
Variant C24G U35C C55U has a yeast fitness of at most 0.5.
With C4A C11U A21U G23A C62U U64C G67A the yeast fitness was at most 0.5.
With U7G A20G C46U G68C the yeast fitness was at most 0.5.
Variant C4A A21U A57C has a yeast fitness of at most 0.5.
C24A C55A gave a yeast fitness of at most 0.5.
A14U U26C A43C C46A G67A showed a yeast fitness of at most 0.5.
U8A A37G C55U G68A showed a yeast fitness of at most 0.5.
For A15C C33A C34U A36C G48C G50C, the yeast fitness was at most 0.5.
C4A G12A C62U showed a yeast fitness of at most 0.5.
For C11A C22G C31G, the yeast fitness was at most 0.5.
In the case of C5U C27G C33G, the yeast fitness is reported as at most 0.5.
Work on G10C C30G C60A yielded a yeast fitness of at most 0.5.
A45G G51A gave a yeast fitness of 0.716.
Variant A14G A20C A36U G39C has a yeast fitness of at most 0.5.
Variant U2A U7G A45U G52A U64C A69U has a yeast fitness of at most 0.5.
U7A A21C A36C showed a yeast fitness of at most 0.5.
Variant G12A A15U A21C C49U C62U has a yeast fitness of at most 0.5.
For G18C C29A, the yeast fitness was at most 0.5.
Work on A36U A43C C49A yielded a yeast fitness of at most 0.5.
In the case of U16C A37C G56C, the yeast fitness is reported as at most 0.5.
Variant U7A C29U A36U A43G has a yeast fitness of at most 0.5.
In the case of U7C C33G G63A A70G, the yeast fitness is reported as at most 0.5.
Variant C5U C55G C61A has a yeast fitness of at most 0.5.
G6A G12A C27G G68C A70U gave a yeast fitness of 0.549.
G9C C27U A36G A42U G63C showed a yeast fitness of at most 0.5.
In the case of G6C U13C C31G C33A, the yeast fitness is reported as at most 0.5.
With A15C A45C C60U C61U the yeast fitness was at most 0.5.
U7A U8C A45G G50A U54C gave a yeast fitness of at most 0.5.
G17C A21U A45C C61A G67A showed a yeast fitness of at most 0.5.
C22A C27U A43G C46G showed a yeast fitness of at most 0.5.
For U8C C49U C61A, the yeast fitness was at most 0.5.
Variant U13A G38U G67C has a yeast fitness of at most 0.5.
In the case of C11U C22U C30A A42C G58A, the yeast fitness is reported as at most 0.5.
C11G C27U U32A C60U A70C gave a yeast fitness of at most 0.5.
C30U A43C G52A G63A gave a yeast fitness of at most 0.5.
With G12A C31A G38C A65G the yeast fitness was at most 0.5.
For A36C A57C, the yeast fitness was at most 0.5.
Work on G17A C30G G39C U59C G63C yielded a yeast fitness of at most 0.5.
C4G G18A A45C gave a yeast fitness of at most 0.5.
In the case of G6C C34U, the yeast fitness is reported as 0.648.
U2G U7C G18C A70U gave a yeast fitness of at most 0.5.
Variant C29A A43G U54A C61A has a yeast fitness of at most 0.5.
Variant U16C C27A A69U has a yeast fitness of at most 0.5.
In the case of A42C U53C C61A G68A, the yeast fitness is reported as at most 0.5.
Work on G6A U32A A37G yielded a yeast fitness of at most 0.5.
With C11U C31G C34G A43U the yeast fitness was at most 0.5.
C34U C62G C66G G67U gave a yeast fitness of at most 0.5.
G38C C49G U53C showed a yeast fitness of at most 0.5.
With U3A A15G U19A G41A G50A A65U the yeast fitness was at most 0.5.
In the case of C27U A40U U54C C55A, the yeast fitness is reported as at most 0.5.
G23C C55U G67A showed a yeast fitness of at most 0.5.
U26A C29A C31G C61U gave a yeast fitness of at most 0.5.
With A21U A37U the yeast fitness was 0.672.
C4G C11A A42U C46G gave a yeast fitness of at most 0.5.
A14U A20G C24A C31U C33U A37U G48A A69C showed a yeast fitness of at most 0.5.
C4G U26A U47G U54C gave a yeast fitness of at most 0.5.
Variant A20C U47A C61G C66G has a yeast fitness of at most 0.5.
C5A C22G A37C A40C A69C showed a yeast fitness of at most 0.5.
Work on U13C U16C U35C G56C U64C yielded a yeast fitness of at most 0.5.
For A14C A43U A45G G52C, the yeast fitness was at most 0.5.
Work on A21C G41C A70C yielded a yeast fitness of at most 0.5.
In the case of A36U G39A C60G, the yeast fitness is reported as at most 0.5.
G9A C11A G44C gave a yeast fitness of at most 0.5.
In the case of A36G G68C, the yeast fitness is reported as 0.779.
Variant U13A U47C U64A C66U G68C has a yeast fitness of at most 0.5.
For U3A G9A U19A G44C A65U, the yeast fitness was at most 0.5.
In the case of C4U C27G U32C C34U, the yeast fitness is reported as at most 0.5.
Work on G6A G39U yielded a yeast fitness of 0.79.
In the case of U19C A43G G44C A45C, the yeast fitness is reported as at most 0.5.
Variant G6A A20C A45G G50C C60A A69C has a yeast fitness of at most 0.5.
In the case of C5G C34G A70C, the yeast fitness is reported as at most 0.5.
For C4G U8A G12A C62G, the yeast fitness was at most 0.5.
In the case of G12A C34G A37G G38A G50A, the yeast fitness is reported as at most 0.5.
Variant U13G U32A G48C C61U A69G has a yeast fitness of at most 0.5.
Variant C4U C27U G39C U54G C55U has a yeast fitness of at most 0.5.
With G39C C49A U64G the yeast fitness was at most 0.5.
Variant A20U A36C C60A has a yeast fitness of at most 0.5.
In the case of U2G C33G G39C C55U C66U, the yeast fitness is reported as at most 0.5.
A21C C33G A43C A57U showed a yeast fitness of at most 0.5.
U54G G67A gave a yeast fitness of 0.637.
Work on U8C U13G C22U yielded a yeast fitness of 0.529.
For G9C A15U C24U, the yeast fitness was at most 0.5.
Variant A42G G51U A57U has a yeast fitness of at most 0.5.
Variant U2C C27U C46U G48A has a yeast fitness of 0.636.
For C4G A21C A43U C55A, the yeast fitness was at most 0.5.
For G9A A21C G25C U32A, the yeast fitness was at most 0.5.
Work on A14G G23A A36G C66U yielded a yeast fitness of at most 0.5.
In the case of C24G C30U C34A C46U A70U, the yeast fitness is reported as at most 0.5.
In the case of U8G A15U A20C A69C, the yeast fitness is reported as at most 0.5.
With U8A G12C U19G G25C C30U the yeast fitness was at most 0.5.
Work on C5U G12A G17C C30A yielded a yeast fitness of at most 0.5.
C11A G12U U13C A14G G44C C46A C49G gave a yeast fitness of at most 0.5.
A14U A40C U53A showed a yeast fitness of at most 0.5.
Work on U8A G44C U59A yielded a yeast fitness of at most 0.5.
C4G C11A U26A gave a yeast fitness of at most 0.5.
Variant U3A C24U U35C G39A C55A has a yeast fitness of at most 0.5.
G17A A36U C62G showed a yeast fitness of at most 0.5.
U8A G23C C33A gave a yeast fitness of at most 0.5.
A37C A43C C55G C60U gave a yeast fitness of at most 0.5.
For G6A A20G C24U A40G A43G A70G, the yeast fitness was at most 0.5.
In the case of G6A G10C U13C A15U C61A, the yeast fitness is reported as at most 0.5.
Variant U2A U3G C29G C30G C46G A70G has a yeast fitness of at most 0.5.
A14G A15U A37C A43U showed a yeast fitness of at most 0.5.
U3A C4U A37G A40U C61U showed a yeast fitness of at most 0.5.
Work on C5A A14U C27U C49G U54C yielded a yeast fitness of at most 0.5.
With A21C A42U G52A C60A A69G the yeast fitness was at most 0.5.
For C34G C46A U64A, the yeast fitness was at most 0.5.
Work on C31U C33U A37G A70U yielded a yeast fitness of at most 0.5.
C27G A45C G52A A57G showed a yeast fitness of at most 0.5.
G18A G39C U59G gave a yeast fitness of at most 0.5.
A14G C33U A40C A45C showed a yeast fitness of at most 0.5.
Work on C60U G67A A69U yielded a yeast fitness of at most 0.5.
In the case of C22U A57G C60A, the yeast fitness is reported as at most 0.5.
Work on C30U A40U C60U yielded a yeast fitness of at most 0.5.
C11U A40C U53A C66A gave a yeast fitness of at most 0.5.
Variant U3A G10C A36U A40C C60G has a yeast fitness of 0.569.
C24A A36U gave a yeast fitness of at most 0.5.
